# Where a name gives a salt, the structure may show the parent alone. Some of the results follow. The calls rarely recur for the same compound in another form.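 Kinases were expressed as nanoluciferase fusions in K562 cells and luminescence was read every 4 h between 2 and 18 h as percent of control, DMSO set to 100% and a positive control to 0%. A time point counts as decreased when the signal drops significantly (2 sigma). The hit call is the authors' own, does not follow from the count of time points alone, and its rule is not shown.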
# The chains behind the UniProt entries cited, without tags or fusion partners. Where a name states a change or a piece, a line headed by the entry shows the natural chain unless it says otherwise.
# UniProt Q15208: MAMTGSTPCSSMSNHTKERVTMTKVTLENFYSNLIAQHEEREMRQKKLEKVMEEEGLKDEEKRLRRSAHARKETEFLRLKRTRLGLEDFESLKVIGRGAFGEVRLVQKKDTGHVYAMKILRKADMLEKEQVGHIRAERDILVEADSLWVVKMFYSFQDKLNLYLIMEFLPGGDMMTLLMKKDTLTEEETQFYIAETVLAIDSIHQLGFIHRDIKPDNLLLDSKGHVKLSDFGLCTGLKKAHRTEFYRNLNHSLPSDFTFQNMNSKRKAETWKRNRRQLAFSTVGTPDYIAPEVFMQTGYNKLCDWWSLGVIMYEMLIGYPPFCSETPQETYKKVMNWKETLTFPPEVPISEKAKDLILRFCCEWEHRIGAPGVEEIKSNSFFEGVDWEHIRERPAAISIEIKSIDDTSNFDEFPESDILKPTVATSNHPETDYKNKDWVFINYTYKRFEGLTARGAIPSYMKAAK
# UniProt P42680: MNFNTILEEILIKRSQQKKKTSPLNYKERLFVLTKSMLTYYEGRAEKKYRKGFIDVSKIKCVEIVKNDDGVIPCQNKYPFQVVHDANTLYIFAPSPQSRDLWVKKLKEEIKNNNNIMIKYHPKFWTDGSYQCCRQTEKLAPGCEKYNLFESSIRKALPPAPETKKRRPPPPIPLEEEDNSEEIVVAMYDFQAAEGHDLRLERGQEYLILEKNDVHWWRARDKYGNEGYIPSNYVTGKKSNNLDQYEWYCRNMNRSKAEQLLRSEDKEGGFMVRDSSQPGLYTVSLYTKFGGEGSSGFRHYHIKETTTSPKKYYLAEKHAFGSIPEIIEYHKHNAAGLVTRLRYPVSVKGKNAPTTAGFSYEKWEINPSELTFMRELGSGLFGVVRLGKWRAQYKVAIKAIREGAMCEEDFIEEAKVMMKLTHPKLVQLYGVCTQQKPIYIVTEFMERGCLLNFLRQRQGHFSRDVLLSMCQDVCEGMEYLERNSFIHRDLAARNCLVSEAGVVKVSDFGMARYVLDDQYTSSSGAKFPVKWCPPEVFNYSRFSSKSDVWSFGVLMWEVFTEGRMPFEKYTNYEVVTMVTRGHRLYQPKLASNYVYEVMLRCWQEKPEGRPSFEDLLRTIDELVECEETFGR
# UniProt P29597: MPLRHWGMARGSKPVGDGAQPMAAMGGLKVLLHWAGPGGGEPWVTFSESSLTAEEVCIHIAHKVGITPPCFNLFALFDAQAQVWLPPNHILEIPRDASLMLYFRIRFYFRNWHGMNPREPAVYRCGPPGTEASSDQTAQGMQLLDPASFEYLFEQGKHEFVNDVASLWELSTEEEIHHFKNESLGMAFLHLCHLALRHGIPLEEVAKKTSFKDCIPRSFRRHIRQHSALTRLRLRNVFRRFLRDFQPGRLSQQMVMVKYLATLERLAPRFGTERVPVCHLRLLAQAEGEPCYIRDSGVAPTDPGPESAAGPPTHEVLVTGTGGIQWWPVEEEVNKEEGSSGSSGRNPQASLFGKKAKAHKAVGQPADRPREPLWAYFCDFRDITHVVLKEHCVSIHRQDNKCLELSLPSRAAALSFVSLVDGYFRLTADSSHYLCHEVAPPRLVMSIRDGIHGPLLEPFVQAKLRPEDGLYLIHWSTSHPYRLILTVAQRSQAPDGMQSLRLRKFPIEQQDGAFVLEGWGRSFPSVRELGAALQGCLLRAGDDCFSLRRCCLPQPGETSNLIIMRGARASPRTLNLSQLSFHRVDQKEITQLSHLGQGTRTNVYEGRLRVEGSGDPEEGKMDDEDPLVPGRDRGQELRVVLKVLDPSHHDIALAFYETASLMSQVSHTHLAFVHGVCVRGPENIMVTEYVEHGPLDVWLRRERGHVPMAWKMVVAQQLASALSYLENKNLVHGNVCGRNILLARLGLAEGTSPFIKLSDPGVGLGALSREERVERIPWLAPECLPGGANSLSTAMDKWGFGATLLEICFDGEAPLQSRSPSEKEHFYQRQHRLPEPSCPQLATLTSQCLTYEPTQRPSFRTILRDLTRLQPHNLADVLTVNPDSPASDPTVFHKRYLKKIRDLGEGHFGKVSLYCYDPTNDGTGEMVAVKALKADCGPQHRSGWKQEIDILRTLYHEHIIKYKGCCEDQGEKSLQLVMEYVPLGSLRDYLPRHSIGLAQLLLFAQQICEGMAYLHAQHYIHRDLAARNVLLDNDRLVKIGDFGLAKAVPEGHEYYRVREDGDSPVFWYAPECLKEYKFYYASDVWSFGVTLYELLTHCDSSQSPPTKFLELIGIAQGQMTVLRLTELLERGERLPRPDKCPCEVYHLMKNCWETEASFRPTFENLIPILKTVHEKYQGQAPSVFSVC
# UniProt Q6PHR2: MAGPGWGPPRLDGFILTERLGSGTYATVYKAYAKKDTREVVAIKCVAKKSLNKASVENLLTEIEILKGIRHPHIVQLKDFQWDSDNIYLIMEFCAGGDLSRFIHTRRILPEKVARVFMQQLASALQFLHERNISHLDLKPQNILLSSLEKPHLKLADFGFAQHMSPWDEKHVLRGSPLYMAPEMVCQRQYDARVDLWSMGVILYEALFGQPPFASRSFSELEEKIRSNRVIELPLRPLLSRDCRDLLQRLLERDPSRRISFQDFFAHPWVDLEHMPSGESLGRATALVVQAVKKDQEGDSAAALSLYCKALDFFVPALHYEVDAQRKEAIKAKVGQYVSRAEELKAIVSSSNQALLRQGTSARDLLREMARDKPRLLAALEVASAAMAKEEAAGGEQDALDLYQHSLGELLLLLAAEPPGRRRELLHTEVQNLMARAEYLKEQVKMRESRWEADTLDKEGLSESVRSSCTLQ
# UniProt P07947, whole entry, looked up: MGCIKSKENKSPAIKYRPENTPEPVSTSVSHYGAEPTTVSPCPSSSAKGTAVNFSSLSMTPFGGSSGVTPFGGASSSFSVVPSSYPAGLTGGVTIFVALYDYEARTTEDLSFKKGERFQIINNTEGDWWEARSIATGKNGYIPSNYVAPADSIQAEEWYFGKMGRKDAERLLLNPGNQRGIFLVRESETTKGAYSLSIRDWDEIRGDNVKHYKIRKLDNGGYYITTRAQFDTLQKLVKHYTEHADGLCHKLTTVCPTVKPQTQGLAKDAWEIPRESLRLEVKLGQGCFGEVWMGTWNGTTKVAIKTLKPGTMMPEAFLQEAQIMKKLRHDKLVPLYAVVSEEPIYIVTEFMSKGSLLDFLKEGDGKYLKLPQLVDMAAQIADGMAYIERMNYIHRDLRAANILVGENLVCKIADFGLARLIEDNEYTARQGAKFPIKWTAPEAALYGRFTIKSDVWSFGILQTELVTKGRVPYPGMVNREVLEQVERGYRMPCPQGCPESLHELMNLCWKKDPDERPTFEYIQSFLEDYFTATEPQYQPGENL
# UniProt P43403: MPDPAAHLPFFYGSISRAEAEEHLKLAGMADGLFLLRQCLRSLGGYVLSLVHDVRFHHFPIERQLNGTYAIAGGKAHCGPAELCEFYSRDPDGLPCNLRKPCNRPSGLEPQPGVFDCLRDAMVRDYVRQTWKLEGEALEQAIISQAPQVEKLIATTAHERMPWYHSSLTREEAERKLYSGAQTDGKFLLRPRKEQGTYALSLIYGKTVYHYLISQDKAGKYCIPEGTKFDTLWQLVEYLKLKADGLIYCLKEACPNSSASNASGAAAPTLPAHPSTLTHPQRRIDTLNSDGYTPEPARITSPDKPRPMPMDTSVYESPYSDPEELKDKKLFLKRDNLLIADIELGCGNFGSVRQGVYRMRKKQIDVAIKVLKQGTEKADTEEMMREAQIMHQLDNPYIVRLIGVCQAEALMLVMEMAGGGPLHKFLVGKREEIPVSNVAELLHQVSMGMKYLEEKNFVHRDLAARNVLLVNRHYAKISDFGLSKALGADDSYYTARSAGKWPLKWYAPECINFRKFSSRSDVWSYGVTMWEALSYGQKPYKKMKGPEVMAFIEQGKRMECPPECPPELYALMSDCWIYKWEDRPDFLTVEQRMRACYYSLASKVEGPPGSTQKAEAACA
# UniProt P11802: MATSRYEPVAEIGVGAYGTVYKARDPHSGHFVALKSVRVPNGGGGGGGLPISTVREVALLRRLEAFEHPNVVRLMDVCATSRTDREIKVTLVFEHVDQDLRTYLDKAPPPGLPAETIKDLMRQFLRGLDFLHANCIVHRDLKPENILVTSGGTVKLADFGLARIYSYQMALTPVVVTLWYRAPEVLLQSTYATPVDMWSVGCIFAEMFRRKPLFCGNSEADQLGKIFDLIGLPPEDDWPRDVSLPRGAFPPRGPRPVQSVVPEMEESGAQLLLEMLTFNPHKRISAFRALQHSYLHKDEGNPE
# UniProt P50613: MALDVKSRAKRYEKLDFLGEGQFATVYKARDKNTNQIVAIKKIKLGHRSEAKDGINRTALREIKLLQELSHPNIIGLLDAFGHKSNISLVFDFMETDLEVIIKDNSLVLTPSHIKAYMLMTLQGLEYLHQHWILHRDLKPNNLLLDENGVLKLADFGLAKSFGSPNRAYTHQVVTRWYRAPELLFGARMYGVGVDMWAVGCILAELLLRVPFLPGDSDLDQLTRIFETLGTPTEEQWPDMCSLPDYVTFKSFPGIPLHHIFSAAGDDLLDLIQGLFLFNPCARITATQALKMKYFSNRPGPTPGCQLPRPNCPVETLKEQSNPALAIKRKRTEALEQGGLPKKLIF
# UniProt P50750, whole entry: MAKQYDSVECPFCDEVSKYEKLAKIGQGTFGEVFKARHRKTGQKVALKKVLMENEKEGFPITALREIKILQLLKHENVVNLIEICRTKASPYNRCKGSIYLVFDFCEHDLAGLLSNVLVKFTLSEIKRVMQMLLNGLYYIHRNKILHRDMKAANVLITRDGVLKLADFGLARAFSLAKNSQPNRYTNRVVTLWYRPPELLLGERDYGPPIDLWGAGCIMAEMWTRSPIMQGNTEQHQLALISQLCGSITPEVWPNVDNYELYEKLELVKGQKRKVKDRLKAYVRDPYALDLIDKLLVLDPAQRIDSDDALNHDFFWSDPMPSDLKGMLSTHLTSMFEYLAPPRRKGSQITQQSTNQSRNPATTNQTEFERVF
# Assays:
# Conditions in all cases: K562, 2-18 h
# [1] = biological target: STK38 (UniProt Q15208); assay: kinase-Nluc reporter destabilization hit call (1 = scored as downregulated) (binary); higher = compound decreases kinase abundance
# [2] = biological target: SYK (UniProt P43405); assay: as above
# [3] = biological target: TEC (UniProt P42680); assay: as above
# [4] = biological target: TYK2 (UniProt P29597); assay: as above
# [5] = biological target: ULK3 (UniProt Q6PHR2); assay: as above
# [6] = biological target: YES1 (UniProt P07947); assay: as above
# [7] = biological target: ZAK (UniProt Q9NYL2); assay: as above
# [8] = biological target: ZAP70 (UniProt P43403); assay: as above
# [9] = biological target: CDK4 (UniProt P11802); assay: number of time points (of 4; 2 h point missing) at which kinase-Nluc abundance scored as decreased, DMSO-normalised (count); higher = more persistent destabilization
# [10] = biological target: CDK7 (UniProt P50613); assay: as above
# [11] = biological target: CDK9 (UniProt P50750); assay: as above
SMILES,kinase-Nluc reporter destabilization hit call ([1]; 2.5 µM),kinase-Nluc reporter destabilization hit call ([1]; 10 µM),kinase-Nluc reporter destabilization hit call ([2]; 2.5 µM),kinase-Nluc reporter destabilization hit call ([2]; 10 µM),kinase-Nluc reporter destabilization hit call ([3]; 2.5 µM),kinase-Nluc reporter destabilization hit call ([3]; 10 µM),kinase-Nluc reporter destabilization hit call ([4]; 2.5 µM),kinase-Nluc reporter destabilization hit call ([4]; 10 µM),kinase-Nluc reporter destabilization hit call ([5]; 2.5 µM),kinase-Nluc reporter destabilization hit call ([5]; 10 µM),kinase-Nluc reporter destabilization hit call ([6]; 2.5 µM),kinase-Nluc reporter destabilization hit call ([6]; 10 µM),kinase-Nluc reporter destabilization hit call ([7]; 2.5 µM),kinase-Nluc reporter destabilization hit call ([7]; 10 µM),kinase-Nluc reporter destabilization hit call ([8]; 2.5 µM),kinase-Nluc reporter destabilization hit call ([8]; 10 µM),number of time points ([9]; 2.5 µM),number of time points ([9]; 10 µM),number of time points ([10]; 2.5 µM),number of time points ([10]; 10 µM),number of time points ([11]; 2.5 µM),number of time points ([11]; 10 µM)
CCN(CC)Cc1ccc(OC)c(-c2cc3c(-c4ccc(C(=O)O)c(C(C)C)c4)ccnc3[nH]2)c1,inactive: 0,inactive: 0,inactive: 0,inactive: 0,inactive: 0,inactive: 0,inactive: 0,inactive: 0,inactive: 0,inactive: 0,inactive: 0,inactive: 0,inactive: 0,inactive: 0,inactive: 0,inactive: 0,0,0,0,0,0,0
Nc1cncc(-c2cn3ccnc3c(Nc3ccc(N4CCN(C5COC5)CC4)cc3)n2)n1 [Lanraplenib (succinate)],,inactive: 0,,inactive: 0,,inactive: 0,,inactive: 0,,inactive: 0,,inactive: 0,,inactive: 0,,inactive: 0,,0,,0,,0
CC(C)Nc1cc(-c2c[nH]c(C(=O)N[C@H](CO)c3cccc(Cl)c3)c2)c(Cl)cn1 [Ulixertinib],,inactive: 0,,inactive: 0,,inactive: 0,,inactive: 0,,inactive: 0,,inactive: 0,,inactive: 0,,inactive: 0,,0,,0,,0
Nc1ncnc2c1c(-c1ccc(Oc3ccccc3)cc1)nn2[C@@H]1CCCNC1 [IBT6A (hydrochloride)],inactive: 0,,inactive: 0,,inactive: 0,,inactive: 0,,inactive: 0,,inactive: 0,,inactive: 0,,inactive: 0,,0,,0,,0,
COCCOc1cc(F)c2c(Nc3ccc(NC(=O)Cn4cc(C(C)C)nn4)cc3)ncnc2c1 [AZD3229 Tosylate],,inactive: 0,,inactive: 0,,inactive: 0,,inactive: 0,,inactive: 0,,inactive: 0,,inactive: 0,,inactive: 0,,0,,0,,0
CN(C)C/C=C/C(=O)Nc1cc2c(Nc3ccc(F)c(Cl)c3)ncnc2cc1O[C@H]1CCOC1 [Afatinib (dimaleate)],inactive: 0,,inactive: 0,,inactive: 0,,inactive: 0,,inactive: 0,,inactive: 0,,inactive: 0,,inactive: 0,,0,,0,,0,
COc1cc2nccc(Oc3ccc(NC(=O)C4(C(=O)Nc5ccc(F)cc5)CC4)cc3)c2cc1OC [Cabozantinib (S-malate)],,inactive: 0,,inactive: 0,,inactive: 0,,inactive: 0,,active: 1,,inactive: 0,,inactive: 0,,inactive: 0,,0,,0,,0
OCCn1cc(-c2cnc3nnn(Cc4ccc5ncccc5c4)c3n2)cn1,,inactive: 0,,inactive: 0,,inactive: 0,,inactive: 0,,inactive: 0,,inactive: 0,,inactive: 0,,inactive: 0,,0,,0,,0
COCCOc1cc(F)c2c(Nc3ccc(NC(=O)Cn4cc(C(C)C)nn4)cc3)ncnc2c1,,inactive: 0,,inactive: 0,,inactive: 0,,inactive: 0,,inactive: 0,,inactive: 0,,inactive: 0,,inactive: 0,,0,,0,,0
CC(C)Nc1cc(-c2c[nH]c(C(=O)N[C@H](CO)c3cccc(Cl)c3)c2)c(Cl)cn1 [Ulixertinib (hydrochloride)],,inactive: 0,,inactive: 0,,inactive: 0,,inactive: 0,,inactive: 0,,inactive: 0,,inactive: 0,,inactive: 0,,0,,0,,0
C#Cc1cccc(Nc2ncnc3cc(OCCOC)c(OCCOC)cc23)c1 [Erlotinib],,inactive: 0,,inactive: 0,,inactive: 0,,active: 1,,inactive: 0,,inactive: 0,,inactive: 0,,inactive: 0,,0,,0,,0
CNC(=O)c1cc(Oc2ccc(NC(=O)Nc3ccc(Cl)c(C(F)(F)F)c3)c(F)c2)ccn1 [Regorafenib (monohydrate)],inactive: 0,,inactive: 0,,inactive: 0,,inactive: 0,,inactive: 0,,inactive: 0,,inactive: 0,,inactive: 0,,0,,3,,0,
CC(C)(C)n1nc(-c2cccc3ccccc23)c2c(N)ncnc21 [1-Naphthyl PP1 (hydrochloride)],,inactive: 0,,inactive: 0,,inactive: 0,,inactive: 0,,inactive: 0,,inactive: 0,,inactive: 0,,inactive: 0,,0,,0,,0
Cn1cc(-c2cnc3ccc4ccc(CS(=O)(=O)NCc5ccccn5)cc4c(=O)c3c2)cn1 [MK-8033 (hydrochloride)],,inactive: 0,,inactive: 0,,inactive: 0,,inactive: 0,,inactive: 0,,inactive: 0,,inactive: 0,,inactive: 0,,0,,0,,0
CNC(=O)c1ccccc1Nc1cc(Nc2ccc(N3CCOCC3)cc2OC)ncc1C(F)(F)F [PND-1186 (hydrochloride)],,inactive: 0,,inactive: 0,,inactive: 0,,inactive: 0,,inactive: 0,,inactive: 0,,inactive: 0,,inactive: 0,,0,,0,,0
O=C(Nc1ccncc1)Nc1ccc(-c2nc(N3CCOCC3)nc(N3C4CCC3COC4)n2)cc1 [PKI-179 (hydrochloride)],inactive: 0,,inactive: 0,,inactive: 0,,inactive: 0,,inactive: 0,,inactive: 0,,inactive: 0,,inactive: 0,,0,,3,,3,
C[C@H](CCC(=O)NCCS(=O)(=O)O)[C@H]1CC[C@H]2[C@@H]3[C@@H](O)C[C@@H]4C[C@H](O)CC[C@]4(C)[C@H]3CC[C@]12C [Tauroursodeoxycholate (sodium)],,inactive: 0,,inactive: 0,,inactive: 0,,inactive: 0,,inactive: 0,,inactive: 0,,inactive: 0,,inactive: 0,,0,,0,,0
COC(=O)[C@H](CC(C)C)NC(=O)c1ccc(NC[C@@H](N)CS)cc1-c1cccc2ccccc12 [GGTI298 (Trifluoroacetate)],,inactive: 0,,inactive: 0,,inactive: 0,,inactive: 0,,inactive: 0,,inactive: 0,,inactive: 0,,inactive: 0,,0,,0,,0
N=C(N)NC(=O)c1nc(Cl)c(N)nc1N [Amiloride hydrochloride dihydrate],,inactive: 0,,inactive: 0,,inactive: 0,,inactive: 0,,inactive: 0,,inactive: 0,,inactive: 0,,inactive: 0,,0,,0,,0
Clc1ccc(C2(c3ccc(-c4cn[nH]c4)cc3)CCNCC2)cc1 [AT7867 (dihydrochloride)],inactive: 0,,inactive: 0,,inactive: 0,,inactive: 0,,inactive: 0,,inactive: 0,,inactive: 0,,inactive: 0,,0,,0,,0,
CC(=O)Nc1cccc(-n2c(=O)n(C3CC3)c(=O)c3c(Nc4ccc(I)cc4F)n(C)c(=O)c(C)c32)c1 [Trametinib],,inactive: 0,,inactive: 0,,inactive: 0,,active: 1,,inactive: 0,,inactive: 0,,inactive: 0,,inactive: 0,,3,,3,,4
Cc1cc(Nc2ncc(Cl)c(Nc3ccccc3S(=O)(=O)C(C)C)n2)c(OC(C)C)cc1C1CCNCC1 [Ceritinib dihydrochloride],inactive: 0,,inactive: 0,,inactive: 0,,inactive: 0,,inactive: 0,,inactive: 0,,inactive: 0,,inactive: 0,,0,,0,,0,
N#CCC1(n2cc(-c3ncnc4[nH]ccc34)cn2)CN(C2CCN(C(=O)c3ccnc(C(F)(F)F)c3F)CC2)C1 [Itacitinib adipate],,inactive: 0,,inactive: 0,,inactive: 0,,inactive: 0,,inactive: 0,,inactive: 0,,inactive: 0,,inactive: 0,,0,,0,,0
O=C(Nc1cnn2ccc(N3CCC[C@@H]3c3cc(F)ccc3F)nc12)N1CC[C@H](O)C1 [Larotrectinib],,inactive: 0,,inactive: 0,,inactive: 0,,inactive: 0,,inactive: 0,,inactive: 0,,inactive: 0,,inactive: 0,,0,,0,,0
COc1ccnc(C[S+]([O-])c2nc3cc(-n4cccc4)ccc3[nH]2)c1C (stereo unspecified) [Ilaprazole (sodium)],,inactive: 0,,inactive: 0,,inactive: 0,,inactive: 0,,inactive: 0,,inactive: 0,,inactive: 0,,inactive: 0,,0,,0,,0

# Individual results from the list:
# kinase-Nluc reporter destabilization hit call ([3]; 10 µM) with N=C(N)NC(=O)c1nc(Cl)c(N)nc1N [Amiloride hydrochloride dihydrate] is entered as inactive: 0
# number of time points ([9]; 10 µM) with COC(=O)[C@H](CC(C)C)NC(=O)c1ccc(NC[C@@H](N)CS)cc1-c1cccc2ccccc12 [GGTI298 (Trifluoroacetate)] is entered as 0

# From the supplement of paper PMC12823440, “Inhibitors supercharge kinase turnover through native proteolytic circuits” (Nature, 2025)
